These are yes or no findings as the source states them, for the method shown. Some entries that bind do so weakly or less than the wild type.
Legend:
[1] = target: epiregulin on human colorectal cancer-derived DLD1 cells (human) (UniProt O14944); experiment: cell staining of DLD1 cells, IN Cell Analyzer 6000 imaging
[2] = target: epiregulin on human colorectal cancer-derived DLD1 cells (human) (UniProt O14944); experiment: FACS on DLD1 cells having epiregulin expressed
[3] = target: epiregulin (extracellular domain) (UniProt O14944); experiment: complex formation, gel filtration before crystallisation

Amino acid sequences for entries named in this document (tags omitted). Residues count along the entry.
epiregulin (extracellular domain) (O14944, residues 60-119): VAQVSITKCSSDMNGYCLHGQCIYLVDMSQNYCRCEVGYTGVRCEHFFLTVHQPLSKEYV
epiregulin on human colorectal cancer-derived DLD1 cells (O14944, residues 63-108): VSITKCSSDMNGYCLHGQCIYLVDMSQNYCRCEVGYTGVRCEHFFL

B1: anti-epiregulin scFv-FITC (scFv)
scFv: QVQLQQSGAEVKKPGASVKVSCKASGFNIKDTYMHWVRQAPEQGLEWMGRIDPLNDKTKYDPKFQGRVTITADTSTNTAYLELSSLTSEDTAVYYCARGGGDPVFVYWGQGTLVTVSASSGGGGSGGGGSGGGGSGGGGSGGDIQMTQSPSSLSASVGDRVTITCKASQDINKYLAWYQHKPGQAPRLLIHYTSTLHPGIPSRFSGSGSGTDFTFSISSLQPEDIATYYCLQYDNLRTFGGGTKVEIKRTSHHHHHH
modifications: FITC label (Fluorescein Labeling Kit-NH2); sites not stated
binding [1]: binds
binding [2]: binds

B2: anti-epiregulin scFv-V2122-FITC (scFv)
scFv: QVQLQQSGAEVKKPGASVKVSCKASGFNIKDTYMHWVRQAPEQGLEWMGRIDPLNDKTKYDPKFQGRVTITADTSTNTAYLELSSLTSEDTAVYYCARGGGDPVFVYWGQGTLVTVSASSGGGGSGGGGSGGGGSGGGGSGGDIQMTQSPSSLSASVGDRVTITCKASQDINKYLAWYQHKPGQAPRLLIHYTSTLHPGIPSRFSGSGSGTDFTFSISSLQPEDIATYYCLQYDNLRTFGGGTKVEIKRTSGGGGSGGGGAEAGITGTWSDQLGDTFIVTAGADGALTGTYENAVGGAESRYVLTGRYDSAPATDGSGTALGWTVAWKNNSKNAHSATTWSGQYVGGADAKINTQWLLTSGTTNANAWKSTLVGHDTFTKVKPSAASHHHHHH
modifications: FITC label (Fluorescein Labeling Kit-NH2); sites not stated
binding [1]: binds
binding [2]: binds

B3: epiregulin IgG-FITC (antibody, V domains shown)
VH: QVQLQQSGAEVKKPGASVKVSCKASGFNIKDTYMHWVRQAPEQGLEWMGRIDPLNDKTKYDPKFQGRVTITADTSTNTAYLELSSLTSEDTAVYYCARGGGDPVFVYWGQGTLVTVSA
VL: DIQMTQSPSSLSASVGDRVTITCKASQDINKYLAWYQHKPGQAPRLLIHYTSTLHPGIPSRFSGSGSGTDYTFSISSLQPEDIATYYCLQYDNLRTFGGGTKVEIKR
modifications: FITC label (Fluorescein Labeling Kit-NH2); sites not stated
binding [1]: binds
binding [2]: binds

B4: anti-epiregulin scFv (single chain variable region antibody of anti-epiregulin antibody) (scFv)
scFv: B1 scFv
binding [3]: binds

Source: US20170145063A1
